In all, about 1,900 compounds were measured (“excess over highest single agent (ExcessHSA) synergy score, 6x6 matrix”: median about -83, lowest 2% from about -370 on). This is one part of the list.

This experiment relates to NCI-H446. Kind of experiment: excess over highest single agent (ExcessHSA) synergy score, 6x6 matrix; higher = less synergy (more negative = stronger synergy). The following applies: 72 h; CellTiter-Glo viability.
Take `NS(=O)(=O)OC[C@@H]1C[C@@H](n2ccc3c(N[C@H]4CCc5ccccc54)ncnc32)C[C@@H]1O` + Cc1sc2c(c1C)C(c1ccc(Cl)cc1)=N[C@@H](CC(=O)OC(C)(C)C)c1nnc(C)n1-2 [NCGC00250412-19]: the “excess over highest single agent” value is -544.
The value for `CNC(=O)c1ccc(Nc2cc(Nc3ccccc3S(=O)(=O)C(C)C)c3cc[nH]c3n2)nc1` + Cc1sc2c(c1C)C(c1ccc(Cl)cc1)=N[C@@H](CC(=O)OC(C)(C)C)c1nnc(C)n1-2 [NCGC00250412-19] was -116; that for `Cc1cc(Cl)ccc1OCCCC(=O)NO` + Cc1sc2c(c1C)C(c1ccc(Cl)cc1)=N[C@@H](CC(=O)OC(C)(C)C)c1nnc(C)n1-2 [NCGC00250412-19] was 23.3.
Then `O=C(c1ccc(/C=C/c2n[nH]c3ccccc23)cc1)N1CCNCC1` + Cc1sc2c(c1C)C(c1ccc(Cl)cc1)=N[C@@H](CC(=O)OC(C)(C)C)c1nnc(C)n1-2 [NCGC00250412-19], with -19.2.
Then `C/C(=C\C(=O)Nc1ccccc1C(=O)O)c1ccc2ccccc2c1` + Cc1sc2c(c1C)C(c1ccc(Cl)cc1)=N[C@@H](CC(=O)OC(C)(C)C)c1nnc(C)n1-2 [NCGC00250412-19], with -120; and `CS(=O)(=O)c1ccc(-c2cnc(N)c(C(=O)Nc3ccccc3)n2)cc1` + Cc1sc2c(c1C)C(c1ccc(Cl)cc1)=N[C@@H](CC(=O)OC(C)(C)C)c1nnc(C)n1-2 [NCGC00250412-19], with 122; and `NS(=O)(=O)c1cc(Cl)c(Cl)c(S(N)(=O)=O)c1` + Cc1sc2c(c1C)C(c1ccc(Cl)cc1)=N[C@@H](CC(=O)OC(C)(C)C)c1nnc(C)n1-2 [NCGC00250412-19], with 146.
Consider `CCCCCNC(=N)N/N=C/c1c[nH]c2ccc(OC)cc12` + Cc1sc2c(c1C)C(c1ccc(Cl)cc1)=N[C@@H](CC(=O)OC(C)(C)C)c1nnc(C)n1-2 [NCGC00250412-19], for which the “excess over highest single agent” value was -157.
The value for `COc1c(C)c2c(c(O)c1C/C=C(\C)CCC(=O)O)C(=O)OC2` + Cc1sc2c(c1C)C(c1ccc(Cl)cc1)=N[C@@H](CC(=O)OC(C)(C)C)c1nnc(C)n1-2 [NCGC00250412-19] was -255; that for `O=C(O)C1=CO[C@@H](O[C@@H]2O[C@H](CO)[C@@H](O)[C@H](O)[C@H]2O)[C@@H]2C(CO)=CC[C@H]12` + Cc1sc2c(c1C)C(c1ccc(Cl)cc1)=N[C@@H](CC(=O)OC(C)(C)C)c1nnc(C)n1-2 [NCGC00250412-19] was 346.
The value for `Cc1ccnc(NS(=O)(=O)c2ccc(NC(=O)Nc3ccc(S(=O)(=O)Nc4nccc(C)n4)cc3)cc2)n1` + Cc1sc2c(c1C)C(c1ccc(Cl)cc1)=N[C@@H](CC(=O)OC(C)(C)C)c1nnc(C)n1-2 [NCGC00250412-19] was -31.6; that for `Clc1ccc(C(c2ccc(Cl)cc2)[n+]2ccn(CC(OCc3ccc(Cl)cc3Cl)c3ccc(Cl)cc3Cl)c2)cc1` (centres undefined) + Cc1sc2c(c1C)C(c1ccc(Cl)cc1)=N[C@@H](CC(=O)OC(C)(C)C)c1nnc(C)n1-2 [NCGC00250412-19] was -191.
The value for `CC(C)(C)c1nc(-c2cccc(NS(=O)(=O)c3c(F)cccc3F)c2F)c(-c2ccnc(N)n2)s1` + Cc1sc2c(c1C)C(c1ccc(Cl)cc1)=N[C@@H](CC(=O)OC(C)(C)C)c1nnc(C)n1-2 [NCGC00250412-19] was 8.09.
Consider `COc1cccc2c1CCCC2CCCN1CCN(C2CCCCC2)CC1` (centres undefined) + Cc1sc2c(c1C)C(c1ccc(Cl)cc1)=N[C@@H](CC(=O)OC(C)(C)C)c1nnc(C)n1-2 [NCGC00250412-19], for which the “excess over highest single agent” value was -180.
The value for `C[C@H]1O[C@@H](n2cc(F)c(=O)[nH]c2=O)[C@H](O)[C@@H]1O` + Cc1sc2c(c1C)C(c1ccc(Cl)cc1)=N[C@@H](CC(=O)OC(C)(C)C)c1nnc(C)n1-2 [NCGC00250412-19] was -2.28; that for `O=C(O)CCCCC(CCSCc1ccccc1)SCc1ccccc1` (centres undefined) + Cc1sc2c(c1C)C(c1ccc(Cl)cc1)=N[C@@H](CC(=O)OC(C)(C)C)c1nnc(C)n1-2 [NCGC00250412-19] was -98.5.
Then `C[C@H]([C@H](O)CCC(C)(C)O)[C@H]1CC[C@@]2(O)C3=CC(=O)[C@@H]4C[C@@H](O)[C@@H](O)C[C@]4(C)[C@H]3CC[C@]12C` + Cc1sc2c(c1C)C(c1ccc(Cl)cc1)=N[C@@H](CC(=O)OC(C)(C)C)c1nnc(C)n1-2 [NCGC00250412-19], with -147; and `O=c1c(-c2ccc(O)cc2)coc2cc(O)ccc12` + Cc1sc2c(c1C)C(c1ccc(Cl)cc1)=N[C@@H](CC(=O)OC(C)(C)C)c1nnc(C)n1-2 [NCGC00250412-19], with -75.6.
The value for `COc1cccc(Nc2c(C(N)=O)cnc3c(C)cc(S(=O)(=O)c4cccc(C(=O)N(C)C)c4)cc23)c1` + Cc1sc2c(c1C)C(c1ccc(Cl)cc1)=N[C@@H](CC(=O)OC(C)(C)C)c1nnc(C)n1-2 [NCGC00250412-19] was -40.6; that for `CC(C(C)N1CC(=O)NC(=O)C1)N1CC(=O)NC(=O)C1` (centres undefined) + Cc1sc2c(c1C)C(c1ccc(Cl)cc1)=N[C@@H](CC(=O)OC(C)(C)C)c1nnc(C)n1-2 [NCGC00250412-19] was -113.
Take `N#Cc1ccc(COC[C@H]2O[C@@H](n3c(NCc4ccc(Cl)c(Cl)c4)nc4c(N)ncnc43)[C@H](O)[C@@H]2O)cc1` + Cc1sc2c(c1C)C(c1ccc(Cl)cc1)=N[C@@H](CC(=O)OC(C)(C)C)c1nnc(C)n1-2 [NCGC00250412-19]: the “excess over highest single agent” value was found to be 90.3.
The value for `CN(C)CCN(C)CCc1ccc(Cl)c(Cl)c1` + Cc1sc2c(c1C)C(c1ccc(Cl)cc1)=N[C@@H](CC(=O)OC(C)(C)C)c1nnc(C)n1-2 [NCGC00250412-19] was -198.
For `C[C@@H](O)[C@H]1C(=O)N2C(C(=O)O)=C(S[C@@H]3CN[C@H](C(=O)N(C)C)C3)[C@H](C)[C@H]12` + Cc1sc2c(c1C)C(c1ccc(Cl)cc1)=N[C@@H](CC(=O)OC(C)(C)C)c1nnc(C)n1-2 [NCGC00250412-19], the “excess over highest single agent” value is -145.
For the compound `CC(=O)O[C@H]1C[C@@H]2CC[C@@H]3[C@H](CC[C@@]4(C)[C@H]3C[C@H]([N+]3(C)CCCCC3)[C@@H]4OC(C)=O)[C@@]2(C)C[C@@H]1N1CCCCC1` + Cc1sc2c(c1C)C(c1ccc(Cl)cc1)=N[C@@H](CC(=O)OC(C)(C)C)c1nnc(C)n1-2 [NCGC00250412-19], the “excess over highest single agent” value is -1.01.
